From article PMC7031615
No constants are given. Whether binding was seen depends on the method and setting. For some of these results: Binding seen in cells or lysates may run through a third protein. Some results given as binding are weak or reduced against the parent protein; the word gives no strength. For some of these results: Tags and fused reporters may be left off the sequences shown. Blank lines part the entries; values can stand above or below the binder they belong to.

Assays:
[1] = target: T1, myc.Pex13.2 (Trypanosoma brucei) (UniProt Q38E51); experiment: co-IP; cells co-expressing HA.Pex13.1 and myc.Pex13.2 incubated with DTSSP (2.5 M [sic]) for 30 min before hypotonic lysis (second lysate with 0.5% IGEPAL); lysates incubated overnight at 4°C with anti-HA or anti-myc magnetic beads; washed with 5x TBS-T; SDS-PAGE and Western blot; parental PF 2913 cells as control
T1 sequence: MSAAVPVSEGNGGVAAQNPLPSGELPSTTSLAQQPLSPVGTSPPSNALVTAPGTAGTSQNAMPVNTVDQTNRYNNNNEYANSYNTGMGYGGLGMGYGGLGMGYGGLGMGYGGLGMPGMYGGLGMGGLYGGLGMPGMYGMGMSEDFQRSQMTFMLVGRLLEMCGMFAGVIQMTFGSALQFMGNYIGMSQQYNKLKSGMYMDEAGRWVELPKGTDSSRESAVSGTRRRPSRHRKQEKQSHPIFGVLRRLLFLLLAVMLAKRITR

[2] = target: T2, HA.Pex13.1 (Trypanosoma brucei) (UniProt Q388D2); experiment: as above
T2 sequence: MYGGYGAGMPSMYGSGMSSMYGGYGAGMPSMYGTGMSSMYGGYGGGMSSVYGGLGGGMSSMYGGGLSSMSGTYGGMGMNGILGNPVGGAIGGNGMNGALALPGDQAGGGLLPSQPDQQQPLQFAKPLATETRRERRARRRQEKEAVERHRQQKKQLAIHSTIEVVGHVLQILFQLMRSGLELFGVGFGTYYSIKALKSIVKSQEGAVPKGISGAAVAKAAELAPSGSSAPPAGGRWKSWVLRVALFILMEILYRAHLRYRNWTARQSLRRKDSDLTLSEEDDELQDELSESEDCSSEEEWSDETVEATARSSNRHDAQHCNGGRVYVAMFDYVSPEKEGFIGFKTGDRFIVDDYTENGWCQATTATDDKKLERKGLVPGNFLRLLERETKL

[3] = target: T3, Pex13.1 (Trypanosoma brucei (endogenous in procyclic-form 2913 cells)) (UniProt Q388D2); experiment: native gel or EMSA; 2-dimensional blue native PAGE (4-16% Bis-Tris) then SDS-PAGE and Western blot; organelle-enriched (glycosome) fraction of PF 2913 cells solubilised in 1% n-dodecyl-β-D-maltoside sample buffer
T3 sequence: T2 sequence

[4] = target: T4, Pex13.2 (Trypanosoma brucei (endogenous in procyclic-form 2913 cells)) (UniProt Q38E51); experiment: as above
T4 sequence: T1 sequence

B3: Pex13.2 (protein, UniProt Q38E51 1-262)
chain: T1 sequence
binding [3]: binds

B4: Pex14 (protein, UniProt Q38CL4 1-366)
chain: MSLLLSGVVDDGKSKPEVEHTHSEREKRVSNAVEFLLDSRVRRTPTSSKVHFLKSKGLSAEEICEAFTKVGQPKTLNEIKRILSERPYVPTGPNSQHMTQPLRDESADSVPTPHPNQSRRHTSLLYAPQAPPLPEAAAATRGVDWRDLVIGAGAAVIGGFAAFKAFQLYSPYEIRLKDEGSKPRSRRSRRGGRHASSDSEAERSLVHREVPALPVPAIPVASESHVDAKQAEIERLKTELKETQEALEAEKKGKAELSITLGKLRGQVTAYSRTNEKQESQIKSLQEEVNRLKSEIERKEDSAKVNANSNVEETLDSKEEGLPSSDTESSNPNGASSEVARDTQQQDGPAPLSTETDGTVVGGEAA
binding [3]: binds | binding [4]: binds | binding [2]: binds | binding [1]: binds

The next lines start with the values.

binding [1]: binds
B1: HA.Pex13.1 (protein, UniProt Q388D2 1-391)
chain: T2 sequence

binding [2]: binds
B2: myc.Pex13.2 (protein, UniProt Q38E51 1-262)
chain: T1 sequence
